In paper PMC7136618, “Defective nucleotide-dependent assembly and membrane fusion in Mfn2 CMT2A variants improved by Bax” (Life Science Alliance, 2020):
No constants are given. Whether binding was seen depends on the method and setting. Some results given as binding are weak or reduced against the parent protein; the word gives no strength. Sequences can lack the tags named with a protein.

What was measured:
[1] = biological target: T1, Mfn2^S378P with a C-terminal 3×FLAG tag (UniProt Q80U63); assay: native gel or EMSA; BN-PAGE of isolated mitochondria incubated with 2 mM GTP at 37°C for 30 min before lysis in 1% digitonin; anti-FLAG blot
T1 sequence: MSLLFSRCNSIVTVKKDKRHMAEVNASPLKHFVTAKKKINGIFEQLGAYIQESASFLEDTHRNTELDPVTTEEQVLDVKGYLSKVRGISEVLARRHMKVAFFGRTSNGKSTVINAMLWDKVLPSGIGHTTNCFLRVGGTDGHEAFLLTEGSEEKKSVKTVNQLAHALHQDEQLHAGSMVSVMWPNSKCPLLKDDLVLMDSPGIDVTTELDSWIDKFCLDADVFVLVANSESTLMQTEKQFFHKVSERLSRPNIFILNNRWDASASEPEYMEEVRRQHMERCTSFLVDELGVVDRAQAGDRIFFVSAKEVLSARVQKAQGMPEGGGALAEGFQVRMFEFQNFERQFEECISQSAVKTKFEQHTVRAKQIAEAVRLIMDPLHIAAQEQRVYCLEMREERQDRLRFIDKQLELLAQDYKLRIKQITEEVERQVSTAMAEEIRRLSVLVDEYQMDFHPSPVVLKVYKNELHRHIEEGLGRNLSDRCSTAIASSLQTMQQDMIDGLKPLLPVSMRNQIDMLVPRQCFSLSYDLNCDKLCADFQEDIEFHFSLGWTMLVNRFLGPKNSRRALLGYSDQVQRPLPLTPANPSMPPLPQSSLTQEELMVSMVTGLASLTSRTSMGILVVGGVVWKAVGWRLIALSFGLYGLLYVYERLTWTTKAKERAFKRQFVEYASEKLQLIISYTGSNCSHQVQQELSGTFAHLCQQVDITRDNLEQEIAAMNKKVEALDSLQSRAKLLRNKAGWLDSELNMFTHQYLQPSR

[2] = biological target: T1, Mfn2^S378P with a C-terminal 3×FLAG tag; assay: native gel or EMSA; BN-PAGE of isolated mitochondria incubated with 2 mM GMPPNP, with or without 1 μM purified recombinant Bax, at 37°C for 30 min before lysis in 1% digitonin; anti-FLAG blot
[3] = biological target: T2, Mfn2^A383V with a C-terminal 3×FLAG tag (UniProt Q80U63); assay: native gel or EMSA; BN-PAGE of isolated mitochondria incubated with 2 mM GTP at 37°C for 30 min before lysis in 1% digitonin; anti-FLAG blot
T2 sequence: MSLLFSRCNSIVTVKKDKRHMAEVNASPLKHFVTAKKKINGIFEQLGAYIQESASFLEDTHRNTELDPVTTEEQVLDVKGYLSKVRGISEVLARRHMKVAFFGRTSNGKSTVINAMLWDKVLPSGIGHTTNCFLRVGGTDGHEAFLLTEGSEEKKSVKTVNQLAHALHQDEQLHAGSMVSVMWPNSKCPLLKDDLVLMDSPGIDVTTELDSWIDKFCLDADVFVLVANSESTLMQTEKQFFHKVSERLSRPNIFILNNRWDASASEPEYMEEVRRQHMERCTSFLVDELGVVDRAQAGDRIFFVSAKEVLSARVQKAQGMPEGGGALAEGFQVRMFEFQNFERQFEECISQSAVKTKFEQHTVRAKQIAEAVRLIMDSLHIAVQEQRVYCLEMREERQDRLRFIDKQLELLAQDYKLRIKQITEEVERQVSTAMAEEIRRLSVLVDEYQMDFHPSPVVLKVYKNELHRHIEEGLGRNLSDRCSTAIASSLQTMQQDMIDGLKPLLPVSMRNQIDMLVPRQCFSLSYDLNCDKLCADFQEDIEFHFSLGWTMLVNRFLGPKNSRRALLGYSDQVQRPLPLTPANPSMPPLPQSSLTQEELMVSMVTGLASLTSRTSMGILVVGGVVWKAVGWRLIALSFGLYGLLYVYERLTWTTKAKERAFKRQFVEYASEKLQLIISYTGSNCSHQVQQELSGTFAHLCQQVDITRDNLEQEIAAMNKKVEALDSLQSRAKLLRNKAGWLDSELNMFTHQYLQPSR

[4] = biological target: T2, Mfn2^A383V with a C-terminal 3×FLAG tag; assay: native gel or EMSA; BN-PAGE of isolated mitochondria incubated with 2 mM GMPPNP, with or without 1 μM purified recombinant Bax, at 37°C for 30 min before lysis in 1% digitonin; anti-FLAG blot
[5] = biological target: T3, Mfn2^Q386P with a C-terminal 3×FLAG tag (UniProt Q80U63); assay: native gel or EMSA; BN-PAGE of isolated mitochondria incubated with 2 mM GTP at 37°C for 30 min before lysis in 1% digitonin; anti-FLAG blot
T3 sequence: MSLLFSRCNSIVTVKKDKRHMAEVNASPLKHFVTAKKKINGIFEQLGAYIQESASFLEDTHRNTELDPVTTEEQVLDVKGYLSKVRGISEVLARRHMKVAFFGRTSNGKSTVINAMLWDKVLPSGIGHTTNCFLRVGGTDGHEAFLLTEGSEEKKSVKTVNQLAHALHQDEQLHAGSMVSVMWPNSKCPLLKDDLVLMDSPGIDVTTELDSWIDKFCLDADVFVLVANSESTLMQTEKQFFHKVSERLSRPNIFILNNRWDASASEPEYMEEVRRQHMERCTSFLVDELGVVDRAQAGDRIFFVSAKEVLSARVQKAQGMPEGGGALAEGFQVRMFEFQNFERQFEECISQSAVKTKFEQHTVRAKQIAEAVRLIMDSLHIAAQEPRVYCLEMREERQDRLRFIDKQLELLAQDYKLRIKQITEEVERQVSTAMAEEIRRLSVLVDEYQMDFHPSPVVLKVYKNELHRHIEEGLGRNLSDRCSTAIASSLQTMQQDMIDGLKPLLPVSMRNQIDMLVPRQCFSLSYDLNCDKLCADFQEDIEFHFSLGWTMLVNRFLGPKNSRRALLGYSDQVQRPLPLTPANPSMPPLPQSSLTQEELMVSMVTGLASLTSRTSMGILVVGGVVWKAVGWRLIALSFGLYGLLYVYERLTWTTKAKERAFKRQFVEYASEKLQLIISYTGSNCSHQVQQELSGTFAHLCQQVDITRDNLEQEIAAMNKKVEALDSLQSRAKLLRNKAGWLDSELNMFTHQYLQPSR

[6] = biological target: T3, Mfn2^Q386P with a C-terminal 3×FLAG tag; assay: native gel or EMSA; BN-PAGE of isolated mitochondria incubated with 2 mM GMPPNP, with or without 1 μM purified recombinant Bax, at 37°C for 30 min before lysis in 1% digitonin; anti-FLAG blot

B1: Mfn2^S378P with a C-terminal 3×FLAG tag (natural protein, UniProt Q80U63 1-757, looked up)
chain: MSLLFSRCNSIVTVKKDKRHMAEVNASPLKHFVTAKKKINGIFEQLGAYIQESASFLEDTHRNTELDPVTTEEQVLDVKGYLSKVRGISEVLARRHMKVAFFGRTSNGKSTVINAMLWDKVLPSGIGHTTNCFLRVGGTDGHEAFLLTEGSEEKKSVKTVNQLAHALHQDEQLHAGSMVSVMWPNSKCPLLKDDLVLMDSPGIDVTTELDSWIDKFCLDADVFVLVANSESTLMQTEKQFFHKVSERLSRPNIFILNNRWDASASEPEYMEEVRRQHMERCTSFLVDELGVVDRAQAGDRIFFVSAKEVLSARVQKAQGMPEGGGALAEGFQVRMFEFQNFERQFEECISQSAVKTKFEQHTVRAKQIAEAVRLIMDPLHIAAQEQRVYCLEMREERQDRLRFIDKQLELLAQDYKLRIKQITEEVERQVSTAMAEEIRRLSVLVDEYQMDFHPSPVVLKVYKNELHRHIEEGLGRNLSDRCSTAIASSLQTMQQDMIDGLKPLLPVSMRNQIDMLVPRQCFSLSYDLNCDKLCADFQEDIEFHFSLGWTMLVNRFLGPKNSRRALLGYSDQVQRPLPLTPANPSMPPLPQSSLTQEELMVSMVTGLASLTSRTSMGILVVGGVVWKAVGWRLIALSFGLYGLLYVYERLTWTTKAKERAFKRQFVEYASEKLQLIISYTGSNCSHQVQQELSGTFAHLCQQVDITRDNLEQEIAAMNKKVEALDSLQSRAKLLRNKAGWLDSELNMFTHQYLQPSR
notes: Mitofusin 2 (Mfn2) with the CMT2A-associated substitution S378P; CMT2A-associated (patient) substitution; also called Mfn2-FLAG variant S378P; source: Mfn2-null MEFs, retroviral transduction, clonal population; isolated mitochondria, lysed; not shown: 3×FLAG, C-terminal, kept
[1]
  binding: binds
[2]
  binding: binds

B2: Mfn2^A383V with a C-terminal 3×FLAG tag (natural protein, UniProt Q80U63 1-757, looked up)
chain: MSLLFSRCNSIVTVKKDKRHMAEVNASPLKHFVTAKKKINGIFEQLGAYIQESASFLEDTHRNTELDPVTTEEQVLDVKGYLSKVRGISEVLARRHMKVAFFGRTSNGKSTVINAMLWDKVLPSGIGHTTNCFLRVGGTDGHEAFLLTEGSEEKKSVKTVNQLAHALHQDEQLHAGSMVSVMWPNSKCPLLKDDLVLMDSPGIDVTTELDSWIDKFCLDADVFVLVANSESTLMQTEKQFFHKVSERLSRPNIFILNNRWDASASEPEYMEEVRRQHMERCTSFLVDELGVVDRAQAGDRIFFVSAKEVLSARVQKAQGMPEGGGALAEGFQVRMFEFQNFERQFEECISQSAVKTKFEQHTVRAKQIAEAVRLIMDSLHIAVQEQRVYCLEMREERQDRLRFIDKQLELLAQDYKLRIKQITEEVERQVSTAMAEEIRRLSVLVDEYQMDFHPSPVVLKVYKNELHRHIEEGLGRNLSDRCSTAIASSLQTMQQDMIDGLKPLLPVSMRNQIDMLVPRQCFSLSYDLNCDKLCADFQEDIEFHFSLGWTMLVNRFLGPKNSRRALLGYSDQVQRPLPLTPANPSMPPLPQSSLTQEELMVSMVTGLASLTSRTSMGILVVGGVVWKAVGWRLIALSFGLYGLLYVYERLTWTTKAKERAFKRQFVEYASEKLQLIISYTGSNCSHQVQQELSGTFAHLCQQVDITRDNLEQEIAAMNKKVEALDSLQSRAKLLRNKAGWLDSELNMFTHQYLQPSR
notes: Mitofusin 2 (Mfn2) with the CMT2A-associated substitution A383V; CMT2A-associated (patient) substitution; also called Mfn2-FLAG variant A383V; source: Mfn2-null MEFs, retroviral transduction, clonal population; isolated mitochondria, lysed; not shown: 3×FLAG, C-terminal, kept
[3]
  binding: binds
[4]
  binding: binds

B3: Mfn2^Q386P with a C-terminal 3×FLAG tag (natural protein, UniProt Q80U63 1-757, looked up)
chain: MSLLFSRCNSIVTVKKDKRHMAEVNASPLKHFVTAKKKINGIFEQLGAYIQESASFLEDTHRNTELDPVTTEEQVLDVKGYLSKVRGISEVLARRHMKVAFFGRTSNGKSTVINAMLWDKVLPSGIGHTTNCFLRVGGTDGHEAFLLTEGSEEKKSVKTVNQLAHALHQDEQLHAGSMVSVMWPNSKCPLLKDDLVLMDSPGIDVTTELDSWIDKFCLDADVFVLVANSESTLMQTEKQFFHKVSERLSRPNIFILNNRWDASASEPEYMEEVRRQHMERCTSFLVDELGVVDRAQAGDRIFFVSAKEVLSARVQKAQGMPEGGGALAEGFQVRMFEFQNFERQFEECISQSAVKTKFEQHTVRAKQIAEAVRLIMDSLHIAAQEPRVYCLEMREERQDRLRFIDKQLELLAQDYKLRIKQITEEVERQVSTAMAEEIRRLSVLVDEYQMDFHPSPVVLKVYKNELHRHIEEGLGRNLSDRCSTAIASSLQTMQQDMIDGLKPLLPVSMRNQIDMLVPRQCFSLSYDLNCDKLCADFQEDIEFHFSLGWTMLVNRFLGPKNSRRALLGYSDQVQRPLPLTPANPSMPPLPQSSLTQEELMVSMVTGLASLTSRTSMGILVVGGVVWKAVGWRLIALSFGLYGLLYVYERLTWTTKAKERAFKRQFVEYASEKLQLIISYTGSNCSHQVQQELSGTFAHLCQQVDITRDNLEQEIAAMNKKVEALDSLQSRAKLLRNKAGWLDSELNMFTHQYLQPSR
notes: Mitofusin 2 (Mfn2) with the CMT2A-associated substitution Q386P; CMT2A-associated (patient) substitution; also called Mfn2-FLAG variant Q386P; source: Mfn2-null MEFs, retroviral transduction, clonal population; isolated mitochondria, lysed; not shown: 3×FLAG, C-terminal, kept
[5]
  binding: binds
[6]
  binding: binds
